Test results taken from article PMC2572840.
These are yes or no findings as the source states them, for the method shown. For part of these data: Binding seen in cells or lysates may run through a third protein. Some binding calls cover weakened binding; strength is not graded here. For part of these data: Where a sequence is shown, tags or fusion partners need not be part of it. One block for each binder: values may come before it.

Experiments:
[1] = target: T1, Tks5, endogenous in mouse myoblasts (mouse (endogenous in H-2K^b-tsA58 myoblasts)) (UniProt O89032); test: co-IP; myoblast extracts in RIPA buffer at 4°C overnight; extensive washes and a final wash in RIPA buffer with 0.6 M LiCl2; SDS-PAGE and western blotting
T1 sequence: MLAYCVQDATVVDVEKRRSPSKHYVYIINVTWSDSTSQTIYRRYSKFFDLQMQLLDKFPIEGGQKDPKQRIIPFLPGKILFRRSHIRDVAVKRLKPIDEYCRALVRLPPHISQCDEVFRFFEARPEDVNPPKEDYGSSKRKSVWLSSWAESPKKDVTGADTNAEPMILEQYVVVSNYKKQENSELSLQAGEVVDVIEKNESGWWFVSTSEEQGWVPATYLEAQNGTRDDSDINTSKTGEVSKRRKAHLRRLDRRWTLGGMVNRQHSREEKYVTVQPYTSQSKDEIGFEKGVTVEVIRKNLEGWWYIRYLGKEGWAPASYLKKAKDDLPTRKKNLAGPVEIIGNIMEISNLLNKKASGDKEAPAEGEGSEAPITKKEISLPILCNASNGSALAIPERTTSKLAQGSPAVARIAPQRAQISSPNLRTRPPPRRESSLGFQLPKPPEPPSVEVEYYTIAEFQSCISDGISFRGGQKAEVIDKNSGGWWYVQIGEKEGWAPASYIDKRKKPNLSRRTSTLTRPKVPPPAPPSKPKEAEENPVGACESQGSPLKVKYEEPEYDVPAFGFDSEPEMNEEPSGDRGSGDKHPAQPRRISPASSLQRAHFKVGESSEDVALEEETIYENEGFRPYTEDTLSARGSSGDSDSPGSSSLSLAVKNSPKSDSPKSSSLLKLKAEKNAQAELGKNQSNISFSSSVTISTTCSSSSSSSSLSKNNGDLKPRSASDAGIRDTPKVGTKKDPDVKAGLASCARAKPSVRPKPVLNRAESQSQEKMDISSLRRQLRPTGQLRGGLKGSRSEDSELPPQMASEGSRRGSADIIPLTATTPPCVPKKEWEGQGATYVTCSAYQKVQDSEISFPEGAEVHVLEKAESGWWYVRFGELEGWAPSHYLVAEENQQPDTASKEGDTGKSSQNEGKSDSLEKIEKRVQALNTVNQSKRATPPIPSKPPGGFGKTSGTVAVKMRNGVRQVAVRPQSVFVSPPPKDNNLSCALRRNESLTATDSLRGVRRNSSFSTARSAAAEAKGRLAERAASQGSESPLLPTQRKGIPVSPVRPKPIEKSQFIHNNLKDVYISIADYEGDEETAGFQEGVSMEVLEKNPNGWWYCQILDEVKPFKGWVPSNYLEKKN

[2] = target: T2, β-dystroglycan, endogenous in mouse myoblasts (mouse (endogenous in H-2K^b-tsA58 myoblasts)) (UniProt Q62165); test: as above
T2 sequence: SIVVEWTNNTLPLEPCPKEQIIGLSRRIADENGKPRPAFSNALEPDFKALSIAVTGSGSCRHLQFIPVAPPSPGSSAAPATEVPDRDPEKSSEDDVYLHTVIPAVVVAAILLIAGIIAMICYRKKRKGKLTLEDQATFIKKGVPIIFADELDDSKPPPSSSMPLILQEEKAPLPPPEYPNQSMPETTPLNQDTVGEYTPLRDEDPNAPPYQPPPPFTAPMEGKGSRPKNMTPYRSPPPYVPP

GFP-Tks5-mito (human) = target: T3, GFP-Tks5-mito (human) (UniProt Q5TCZ1); test: recruitment to mitochondria by a mitochondrially targeted partner (immunofluorescence); mito-targeted GFP-Tks5 co-expressed with cytosolic Myc-tagged β-DG cytoplasmic domain in myoblast cells; localisation by fluorescence microscopy
T3 sequence: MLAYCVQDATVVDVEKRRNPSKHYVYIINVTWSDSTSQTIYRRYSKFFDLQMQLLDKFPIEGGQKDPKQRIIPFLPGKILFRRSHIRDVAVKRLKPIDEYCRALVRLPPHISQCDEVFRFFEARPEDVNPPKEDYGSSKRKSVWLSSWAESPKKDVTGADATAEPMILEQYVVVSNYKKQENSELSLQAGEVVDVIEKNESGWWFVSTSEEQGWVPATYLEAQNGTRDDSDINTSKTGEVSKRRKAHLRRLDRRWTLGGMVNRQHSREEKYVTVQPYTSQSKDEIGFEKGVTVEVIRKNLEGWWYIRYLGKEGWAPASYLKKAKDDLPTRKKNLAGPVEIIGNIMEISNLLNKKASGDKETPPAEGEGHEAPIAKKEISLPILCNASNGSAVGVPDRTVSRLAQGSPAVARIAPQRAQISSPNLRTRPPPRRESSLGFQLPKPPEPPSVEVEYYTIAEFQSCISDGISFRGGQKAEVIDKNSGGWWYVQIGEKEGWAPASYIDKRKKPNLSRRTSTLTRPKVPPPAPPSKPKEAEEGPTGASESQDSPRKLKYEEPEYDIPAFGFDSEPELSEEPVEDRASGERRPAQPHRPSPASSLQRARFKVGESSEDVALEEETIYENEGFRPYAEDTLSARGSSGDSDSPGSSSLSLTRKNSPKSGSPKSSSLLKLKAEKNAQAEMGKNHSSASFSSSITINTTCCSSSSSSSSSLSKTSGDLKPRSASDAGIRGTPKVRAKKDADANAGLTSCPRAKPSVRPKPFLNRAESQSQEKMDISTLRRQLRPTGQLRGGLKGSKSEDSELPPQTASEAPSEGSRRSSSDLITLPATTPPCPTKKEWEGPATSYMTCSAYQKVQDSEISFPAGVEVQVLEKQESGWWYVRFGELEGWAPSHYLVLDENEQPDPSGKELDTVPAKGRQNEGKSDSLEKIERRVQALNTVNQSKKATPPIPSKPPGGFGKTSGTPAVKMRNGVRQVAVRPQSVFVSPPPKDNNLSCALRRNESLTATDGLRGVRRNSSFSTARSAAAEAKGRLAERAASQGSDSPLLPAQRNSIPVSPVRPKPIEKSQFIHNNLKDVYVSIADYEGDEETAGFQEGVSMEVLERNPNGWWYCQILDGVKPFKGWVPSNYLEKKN

binding [1]: binds
B1: β-dystroglycan, endogenous in mouse myoblasts (receptor, UniProt Q62165 652-893)
chain: SIVVEWTNNTLPLEPCPKEQIIGLSRRIADENGKPRPAFSNALEPDFKALSIAVTGSGSCRHLQFIPVAPPSPGSSAAPATEVPDRDPEKSSEDDVYLHTVIPAVVVAAILLIAGIIAMICYRKKRKGKLTLEDQATFIKKGVPIIFADELDDSKPPPSSSMPLILQEEKAPLPPPEYPNQSMPETTPLNQDTVGEYTPLRDEDPNAPPYQPPPPFTAPMEGKGSRPKNMTPYRSPPPYVPP

binding [2]: binds
B2: Tks5, endogenous in mouse myoblasts (protein, UniProt O89032 1-1124)
chain: MLAYCVQDATVVDVEKRRSPSKHYVYIINVTWSDSTSQTIYRRYSKFFDLQMQLLDKFPIEGGQKDPKQRIIPFLPGKILFRRSHIRDVAVKRLKPIDEYCRALVRLPPHISQCDEVFRFFEARPEDVNPPKEDYGSSKRKSVWLSSWAESPKKDVTGADTNAEPMILEQYVVVSNYKKQENSELSLQAGEVVDVIEKNESGWWFVSTSEEQGWVPATYLEAQNGTRDDSDINTSKTGEVSKRRKAHLRRLDRRWTLGGMVNRQHSREEKYVTVQPYTSQSKDEIGFEKGVTVEVIRKNLEGWWYIRYLGKEGWAPASYLKKAKDDLPTRKKNLAGPVEIIGNIMEISNLLNKKASGDKEAPAEGEGSEAPITKKEISLPILCNASNGSALAIPERTTSKLAQGSPAVARIAPQRAQISSPNLRTRPPPRRESSLGFQLPKPPEPPSVEVEYYTIAEFQSCISDGISFRGGQKAEVIDKNSGGWWYVQIGEKEGWAPASYIDKRKKPNLSRRTSTLTRPKVPPPAPPSKPKEAEENPVGACESQGSPLKVKYEEPEYDVPAFGFDSEPEMNEEPSGDRGSGDKHPAQPRRISPASSLQRAHFKVGESSEDVALEEETIYENEGFRPYTEDTLSARGSSGDSDSPGSSSLSLAVKNSPKSDSPKSSSLLKLKAEKNAQAELGKNQSNISFSSSVTISTTCSSSSSSSSLSKNNGDLKPRSASDAGIRDTPKVGTKKDPDVKAGLASCARAKPSVRPKPVLNRAESQSQEKMDISSLRRQLRPTGQLRGGLKGSRSEDSELPPQMASEGSRRGSADIIPLTATTPPCVPKKEWEGQGATYVTCSAYQKVQDSEISFPEGAEVHVLEKAESGWWYVRFGELEGWAPSHYLVAEENQQPDTASKEGDTGKSSQNEGKSDSLEKIEKRVQALNTVNQSKRATPPIPSKPPGGFGKTSGTVAVKMRNGVRQVAVRPQSVFVSPPPKDNNLSCALRRNESLTATDSLRGVRRNSSFSTARSAAAEAKGRLAERAASQGSESPLLPTQRKGIPVSPVRPKPIEKSQFIHNNLKDVYISIADYEGDEETAGFQEGVSMEVLEKNPNGWWYCQILDEVKPFKGWVPSNYLEKKN

binding (GFP-Tks5-mito (human)): binds
B3: Myc-tagged cytoplasmic domain of β-dystroglycan (domain or fragment, UniProt Q62165 773-893)
chain: YRKKRKGKLTLEDQATFIKKGVPIIFADELDDSKPPPSSSMPLILQEEKAPLPPPEYPNQSMPETTPLNQDTVGEYTPLRDEDPNAPPYQPPPPFTAPMEGKGSRPKNMTPYRSPPPYVPP
